Here are results for 38 sequences from PMC7862700.

Protein sequences, listed by entry. Tags and fused reporters are not part of them. Lines headed by an entry give the natural chain unless they say otherwise; changes in a name come on top.
UniProt Q01892: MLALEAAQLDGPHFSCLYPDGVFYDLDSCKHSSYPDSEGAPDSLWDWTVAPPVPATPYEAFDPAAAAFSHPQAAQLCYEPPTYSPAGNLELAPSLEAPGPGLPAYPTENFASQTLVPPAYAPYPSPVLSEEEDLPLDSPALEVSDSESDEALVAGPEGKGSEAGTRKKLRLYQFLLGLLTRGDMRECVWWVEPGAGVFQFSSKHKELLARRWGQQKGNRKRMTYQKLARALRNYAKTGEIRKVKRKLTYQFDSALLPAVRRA

This is a selection; strong and weak results do not stand in their true shares. At the low end of the ranking the order means little.

Holding throughout (assay): DAPPL (digital affinity profiling via proximity ligation, sequencing)
Settings in all cases: 10 mM Tris-HCl pH 7.5, 50 mM NaCl, 1 mM DTT, 4% glycerol, room temperature, 30 min; GST-TFs on glutathione beads, 16-mer random dsDNA library, 0.1% …; high values mean tight binding; double strand, one strand shown; scale: fold enrichment (6-mer frequency, TF over GST control)

For test [1], the target named is T1, FLI1 (UniProt Q01543).
T1 sequence: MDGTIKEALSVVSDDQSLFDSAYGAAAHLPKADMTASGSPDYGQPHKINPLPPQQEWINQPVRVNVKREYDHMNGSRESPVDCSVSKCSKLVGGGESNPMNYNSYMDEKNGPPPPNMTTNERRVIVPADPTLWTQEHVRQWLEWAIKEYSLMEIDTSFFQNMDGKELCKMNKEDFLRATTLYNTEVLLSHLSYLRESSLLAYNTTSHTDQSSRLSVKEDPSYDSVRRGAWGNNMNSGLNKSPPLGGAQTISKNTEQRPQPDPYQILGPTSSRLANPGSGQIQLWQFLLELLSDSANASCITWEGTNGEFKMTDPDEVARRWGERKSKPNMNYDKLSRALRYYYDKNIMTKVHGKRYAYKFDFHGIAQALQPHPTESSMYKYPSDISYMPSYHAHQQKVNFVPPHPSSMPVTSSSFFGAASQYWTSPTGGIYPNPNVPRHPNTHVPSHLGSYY

The target in test [2] is T2, EHF (UniProt Q9NZC4).
T2 sequence: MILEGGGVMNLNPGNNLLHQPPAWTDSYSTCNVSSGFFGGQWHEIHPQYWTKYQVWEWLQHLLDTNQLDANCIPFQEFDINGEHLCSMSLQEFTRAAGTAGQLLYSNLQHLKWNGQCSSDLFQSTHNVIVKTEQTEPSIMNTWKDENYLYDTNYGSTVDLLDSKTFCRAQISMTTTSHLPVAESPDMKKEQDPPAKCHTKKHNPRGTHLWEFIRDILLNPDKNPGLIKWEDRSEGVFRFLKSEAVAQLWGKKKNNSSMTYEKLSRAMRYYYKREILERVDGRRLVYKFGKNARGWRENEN

In test [3] the target is SPIB (UniProt Q01892).
Test [4] deals with T3, ETV2 (UniProt O00321).
T3 sequence: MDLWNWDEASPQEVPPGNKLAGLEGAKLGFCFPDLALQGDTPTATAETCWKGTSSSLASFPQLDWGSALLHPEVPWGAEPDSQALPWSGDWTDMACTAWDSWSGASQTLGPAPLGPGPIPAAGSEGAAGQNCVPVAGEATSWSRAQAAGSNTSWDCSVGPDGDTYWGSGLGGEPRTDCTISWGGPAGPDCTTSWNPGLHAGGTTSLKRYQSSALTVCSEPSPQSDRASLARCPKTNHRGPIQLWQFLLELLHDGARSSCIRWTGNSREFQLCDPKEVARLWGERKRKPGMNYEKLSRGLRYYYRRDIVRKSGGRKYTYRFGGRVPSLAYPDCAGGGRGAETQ

Test [5] concerns the target T4, ETV3L (UniProt Q6ZN32).
T4 sequence: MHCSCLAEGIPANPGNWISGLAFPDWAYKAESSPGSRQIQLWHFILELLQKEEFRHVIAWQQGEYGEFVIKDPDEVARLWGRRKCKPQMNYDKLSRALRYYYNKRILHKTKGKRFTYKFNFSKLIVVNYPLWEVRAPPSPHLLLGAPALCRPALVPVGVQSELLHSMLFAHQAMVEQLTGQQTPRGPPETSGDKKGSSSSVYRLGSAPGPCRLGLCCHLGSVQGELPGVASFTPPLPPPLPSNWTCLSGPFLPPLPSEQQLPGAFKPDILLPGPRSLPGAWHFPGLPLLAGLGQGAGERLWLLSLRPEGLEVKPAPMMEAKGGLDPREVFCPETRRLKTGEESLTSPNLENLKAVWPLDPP

As for CGCCCA, the binding signal was determined as 0.987 in test [1]; 0.999 in test [2]; 0.944 in test [3]; 0.967 in test [4]; 0.992 in test [5].

As to ATGGTG, the figures for the binding signal in test [1], in test [4] and in test [5] were 1.17, 0.958 and 1.04, respectively.

On to CACTCA, for which the binding signal was 1.06 in test [1], 1.27 in test [4] and 1.11 in test [5].

Turning to GACTCC, the binding signal in test [1] came to 1.35; in test [3], 1.38; in test [4] it was 1.26; in test [5] it was 1.27.

Turning to ATCCAT, the binding signal amounted to 1.22 in test [1], 1.19 in test [4] and 1.11 in test [5].

Regarding GGCTCG, the binding signal in test [1] was 1.06; in test [2], 0.966; in test [4] it was 0.931.

In the case of CCCCGT, the binding signal came out at 1.05 in test [1], 0.998 in test [3], 1.1 in test [4] and 0.992 in test [5].

ACAAGA: the binding signal stood at 0.905 in test [1]; 0.925 in test [2]; 0.821 in test [3]; 0.976 in test [4]; 0.959 in test [5].

Take CAATGT: the binding signal came out at 0.991 in test [1], 0.997 in test [4] and 1.03 in test [5].

Turning to ACATAA, the binding signal was 1.01 in test [1], 1.15 in test [4] and 1.1 in test [5].

AGACTT: the binding signal was 1.09 in test [1], 0.868 in test [4] and 0.951 in test [5].

Consider CCAATT, for which the binding signal in test [1] stood at 1.2; in test [4], 1.27; in test [5], 1.24.

Consider AATAGG, for which the binding signal in test [1] is 1.15; in test [4] it was 0.993; in test [5], 1.12.

For TGGGTG, the binding signal in test [1] is 0.882; in test [3], 0.979; in test [4], 0.969; in test [5] it was 1.08.

As to ACATGC, the binding signal in test [1] amounted to 1.31; in test [4], 1.44; in test [5], 1.26.

On to CTGACC, for which the binding signal came to 1.4 in test [1], 1.59 in test [2] and 1.46 in test [4].

Consider CTCGTT, for which the binding signal was 1.18 in test [1], 1.27 in test [2] and 1.36 in test [4].

With ACTGCC, the binding signal in test [1] came to 1.47; in test [2], 1.46; in test [4], 1.16.

Turning to CTTAAA, the binding signal in test [1] amounted to 1.12; in test [4], 1.1; in test [5], 1.3.

As for AAAGCT, the binding signal in test [1] was 1.06; in test [2] it was 0.979; in test [4] it was 1.01.

As for TAGCAT, the figures for the binding signal in test [1], in test [4] and in test [5] were 1.16, 0.936 and 1.14, respectively.

In the case of AGCAAA, the binding signal amounted to 0.956 in test [1]; 1.03 in test [2]; 1.04 in test [3]; 1.17 in test [4]; 0.988 in test [5].

In the case of TAGGCC, the binding signal in test [1] came out at 0.913; in test [2], 0.953; in test [3] it was 0.919; in test [4], 0.993; in test [5], 0.84.

In the case of TGCCGA, the figures for the binding signal in test [1], in test [2] and in test [4] were 1.07, 1.24 and 1.08, respectively.

In the case of ACATTT, the values for the binding signal in test [1], in test [4] and in test [5] were 1.63, 1.68 and 1.49, respectively.

Take ATCTTG: the binding signal in test [1], in test [2] and in test [4] was 1.35 each time.

As to CCTACC, the binding signal stood at 1.21 in test [1] and 1.37 in test [5].

Consider TCCTCG, for which the results for the binding signal in test [1] and in test [5] were 1.6 and 1.57, respectively.

As to TGTTGT, the binding signal in test [1] was determined as 0.989; in test [3], 1.12; in test [4], 0.992.

As to CCTCCG, the binding signal in test [1] was determined as 1.18; in test [3], 1.48; in test [4] it was 1.33.

As to ACTCGA, the binding signal was determined as 1.35 in test [1], 1.24 in test [3] and 1.46 in test [4].

For TAGCGA, the figures for the binding signal in test [1], in test [3] and in test [4] were 1.1, 0.995 and 0.923, respectively.

With ATACGC, the binding signal was determined as 1.09 in test [1], 1.11 in test [2] and 0.981 in test [4].

For TCTGGT, the binding signal was 1.25 in test [1] and 1.26 in test [5].

With GGTAAA, the binding signal in test [1] was 0.972; in test [2], 1.05; in test [3], 1.08; in test [4], 1.03.

GATTCA: the binding signal in test [1] was found to be 1.11; in test [2], 1.18; in test [4], 1.08.

For GTGCAT, the binding signal in test [1] stood at 0.989; in test [3], 0.997; in test [4], 1.02.

For the sequence CGATAG, the binding signal in test [1] came out at 1.07; in test [2] it was 1.05; in test [3], 1.07; in test [4], 1.16.
